{"source": "paper PMC6412891", "about": "“Synthesis and Biological Evaluation of Novel Thiazolyl-Coumarin Derivatives as Potent Histone Deacetylase Inhibitors with Antifibrotic Activity” (Molecules, 2019)", "origin": "cited, not measured here", "test_system": "CFs", "design": "method as in PMID 24631770, PMID 24374140", "settings": "cited from earlier work", "data": [{"smiles": "O=C(CCCCCCC(=O)Nc1ccccc1)NO", "note": "[SAHA, suberoylanilide hydroxamic acid]", "values": [{"measurement": "concentration shown to inhibit the proliferation of CFs", "value": 10, "unit": "µM"}]}]}
